The values below come from US20050191710A1, “Method for labeling a membrane-localized protein” (priority 2004, published 2005).

Chains of the proteins cited; added tags and fusions are not shown. Lines headed by an entry give the natural chain unless they say otherwise; changes in a name come on top. A line that says so, or that is headed by a name, gives the form on record, which may keep a tag or linker.
CFTR-biotintag, enzymatically biotinylated by BirA at the cell surface (P13569, form named): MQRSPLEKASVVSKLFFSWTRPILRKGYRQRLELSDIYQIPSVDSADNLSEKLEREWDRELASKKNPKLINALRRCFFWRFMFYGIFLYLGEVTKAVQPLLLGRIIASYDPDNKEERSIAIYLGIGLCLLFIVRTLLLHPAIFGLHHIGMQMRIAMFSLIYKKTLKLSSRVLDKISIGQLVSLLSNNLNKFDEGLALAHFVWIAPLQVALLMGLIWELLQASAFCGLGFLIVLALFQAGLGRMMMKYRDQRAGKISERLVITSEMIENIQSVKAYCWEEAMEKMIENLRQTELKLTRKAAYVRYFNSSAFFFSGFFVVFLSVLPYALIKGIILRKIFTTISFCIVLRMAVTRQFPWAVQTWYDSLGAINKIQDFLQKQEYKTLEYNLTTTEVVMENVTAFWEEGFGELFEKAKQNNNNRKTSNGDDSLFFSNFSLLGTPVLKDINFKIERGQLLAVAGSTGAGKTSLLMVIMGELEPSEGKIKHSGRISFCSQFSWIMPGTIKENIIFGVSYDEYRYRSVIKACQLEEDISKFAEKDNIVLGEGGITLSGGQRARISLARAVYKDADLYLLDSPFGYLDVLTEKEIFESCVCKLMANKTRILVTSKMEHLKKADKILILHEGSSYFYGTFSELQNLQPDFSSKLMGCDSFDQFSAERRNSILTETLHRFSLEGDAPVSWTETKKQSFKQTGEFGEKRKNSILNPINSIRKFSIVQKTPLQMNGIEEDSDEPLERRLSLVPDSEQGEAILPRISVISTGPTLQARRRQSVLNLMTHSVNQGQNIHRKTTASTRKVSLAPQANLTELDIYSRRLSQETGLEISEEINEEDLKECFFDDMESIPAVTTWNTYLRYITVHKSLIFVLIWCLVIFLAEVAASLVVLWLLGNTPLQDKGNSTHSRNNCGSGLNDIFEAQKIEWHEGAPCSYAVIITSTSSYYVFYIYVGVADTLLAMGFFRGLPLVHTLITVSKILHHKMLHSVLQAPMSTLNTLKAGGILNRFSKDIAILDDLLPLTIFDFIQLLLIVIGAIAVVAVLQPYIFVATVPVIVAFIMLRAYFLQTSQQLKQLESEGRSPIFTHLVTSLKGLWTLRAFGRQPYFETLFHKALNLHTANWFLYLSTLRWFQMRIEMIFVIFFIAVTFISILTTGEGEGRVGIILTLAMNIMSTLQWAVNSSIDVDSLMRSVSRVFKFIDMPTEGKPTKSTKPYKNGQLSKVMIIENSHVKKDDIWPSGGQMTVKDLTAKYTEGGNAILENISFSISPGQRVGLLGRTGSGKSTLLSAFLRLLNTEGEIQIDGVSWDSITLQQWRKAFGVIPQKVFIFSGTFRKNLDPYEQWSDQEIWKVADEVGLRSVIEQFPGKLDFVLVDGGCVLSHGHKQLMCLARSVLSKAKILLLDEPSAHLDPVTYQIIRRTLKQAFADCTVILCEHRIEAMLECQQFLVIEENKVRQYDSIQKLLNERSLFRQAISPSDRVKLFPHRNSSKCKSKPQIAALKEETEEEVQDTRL
CFTR-biotintag-10his, enzymatically biotinylated by BirA (P13569, form named): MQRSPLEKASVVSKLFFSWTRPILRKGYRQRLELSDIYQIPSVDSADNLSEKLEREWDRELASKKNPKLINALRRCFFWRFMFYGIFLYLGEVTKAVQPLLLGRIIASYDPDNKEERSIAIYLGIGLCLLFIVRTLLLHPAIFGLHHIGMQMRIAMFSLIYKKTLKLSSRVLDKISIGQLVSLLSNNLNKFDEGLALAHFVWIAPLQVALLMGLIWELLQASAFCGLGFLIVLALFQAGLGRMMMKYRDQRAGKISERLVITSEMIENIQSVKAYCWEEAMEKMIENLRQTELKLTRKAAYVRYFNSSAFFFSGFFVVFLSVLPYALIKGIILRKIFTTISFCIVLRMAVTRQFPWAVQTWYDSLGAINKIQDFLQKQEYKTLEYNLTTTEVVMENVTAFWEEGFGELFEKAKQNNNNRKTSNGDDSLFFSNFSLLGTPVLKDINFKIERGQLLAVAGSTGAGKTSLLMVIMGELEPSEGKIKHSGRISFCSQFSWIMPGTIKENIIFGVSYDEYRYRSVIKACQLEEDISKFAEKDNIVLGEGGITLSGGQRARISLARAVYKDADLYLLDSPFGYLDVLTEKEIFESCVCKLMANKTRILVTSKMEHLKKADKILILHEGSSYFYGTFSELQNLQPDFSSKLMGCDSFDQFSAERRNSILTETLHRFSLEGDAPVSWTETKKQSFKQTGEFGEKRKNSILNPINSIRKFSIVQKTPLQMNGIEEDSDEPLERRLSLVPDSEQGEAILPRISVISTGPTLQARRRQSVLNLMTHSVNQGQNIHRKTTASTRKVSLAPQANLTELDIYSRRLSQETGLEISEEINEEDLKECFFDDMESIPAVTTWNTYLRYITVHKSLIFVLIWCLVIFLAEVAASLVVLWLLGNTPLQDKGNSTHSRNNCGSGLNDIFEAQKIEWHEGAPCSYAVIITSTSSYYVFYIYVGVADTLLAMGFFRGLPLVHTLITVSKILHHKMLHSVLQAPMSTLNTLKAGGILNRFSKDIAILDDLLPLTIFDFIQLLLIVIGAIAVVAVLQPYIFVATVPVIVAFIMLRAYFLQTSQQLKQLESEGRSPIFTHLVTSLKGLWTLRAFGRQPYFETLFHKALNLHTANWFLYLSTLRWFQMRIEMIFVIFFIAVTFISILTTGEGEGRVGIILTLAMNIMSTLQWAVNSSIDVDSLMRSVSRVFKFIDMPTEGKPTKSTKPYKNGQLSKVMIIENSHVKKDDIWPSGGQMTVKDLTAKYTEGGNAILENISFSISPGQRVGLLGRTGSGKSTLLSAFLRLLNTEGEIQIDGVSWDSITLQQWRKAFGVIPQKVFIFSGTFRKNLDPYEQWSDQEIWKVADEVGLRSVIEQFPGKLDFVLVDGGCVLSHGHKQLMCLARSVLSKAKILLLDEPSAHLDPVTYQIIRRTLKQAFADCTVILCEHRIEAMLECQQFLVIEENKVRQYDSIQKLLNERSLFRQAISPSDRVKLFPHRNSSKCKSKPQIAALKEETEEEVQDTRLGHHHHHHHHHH

These are yes or no findings as the source states them, for the method shown. Some entries that bind do so weakly or less than the wild type.

Test [1] deals with CFTR-biotintag, enzymatically biotinylated by BirA at the cell surface (UniProt P13569). The test can be described thus: confocal imaging of live BHK cells after BirA and streptavidin-Alexa568.
The target is the same in test [2]. The test can be described thus: capture of biotinylated CFTR on streptavidin beads, western blot. For orientation: In western blotting, separated proteins are transferred to a membrane and probed.
Test [3] has as its target CFTR-biotintag-10his, enzymatically biotinylated by BirA (UniProt P13569). The test can be described thus: capture on streptavidin beads, western blot.

Turning to “fluorescent streptavidin (from UniProt P22629 37-163)”, the binding result in test [1] is “binds”.
Take “streptavidin beads (from UniProt P22629 37-163)”: the binding entry in test [2] and in test [3] was “binds” throughout.
